We go through 1 molecule from patent US20050233328A1.

The target in the experiment is transcriptional factor (TIF1). Put plainly: yeast two-hybrid (PathCalling), detected several times with different libraries.

No constants are given. Whether binding was seen depends on the method and setting. A result given as binding can be weak or reduced; the word gives no strength.

B1: Transketolase (TKT) (enzyme)
chain: MESYHKPDQQKLQALKDTANRLRISSIQATTAAGSGHPTSCCSAAEIMAVLFFHTMRYKSQDPRNPHNDRFVLSKGHAAPILYAVWAEAGFLAEAELLNLRKISSDLDGHPVPKQAFTDVATGSLGQGLGAACGMAYTGKYFDKASYRVYCLLGDGELSEGSVWEAMAFASIYKLDNLVAILDINRLGQSDPAPLQHQMDIYQKRCEAFGWHAIIVDGHSVEELCKAFGQAKHQPTAIIAKTFKGRGITGVEDKESWHGKPLPKNMAEQIIQEIYSQIQSKKKILATPPQEDAPSVDIANIRMPSLPSYKVGDKIATRKAYGQALAKLGHASDRIIALDGDTKNSTFSEIFKKEHPDRFIECYIAEQNMVSIAVGCATRNRTVPFCSTFAAFFTRAFDQIRMAAISESNINLCGSHCGVSIGEDGPSQMALEDLAMFRSVPTSTVFYPSDGVATEKAVELAANTKGICFIRTSRPENAIIYNNNEDFQVGQAKVVLKSKDDQVTVIGAGVTLHEALAAAELLKKEKINIRVLDPFTIKPLDRKLILDSARATKGRILTVEDHYYEGGIGEAVSSAVVGEPGITVTHLAVNRVPRSGKPAELLKMFGIDRDAIAQAVRGLITKA
For B1, the binding entry is given as “binds”.
